Among all 1,200 compounds or so, fewer than 10 were called active. The call rests on the fitted dose curve; in most records, active means well fitted curve in the direction sought with a large enough effect; inconclusive means small, poorly fitted or top-dose-only effect, or another doubt; inactive means no such curve, though single readings can be large or run the other way. This is one part of the list.
Assay: Confirmatory qHTS assay for inhibitors of Activation Induced Cytidine Deaminase (AID): UDG signals; further: 0% is about no effect
Conditions: UDG coupled enzyme activity counter-screen; at 115 µM (top of the series) unless noted
In short: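 Fluorescence at 560 nm excitation/665 nm emission reports UDG activity, read after NaOH quench of a 4 h room-temperature reaction of DJC20/DJC23 substrates with AID (1 uM, 4/3x) and UDG (2 U/mL, 4/3x); compounds at 7.32 nM - 114 uM final, preincubated 10 min.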

| SMILES | activity change, negative = inhibition |
| --- | --- |
| CCOc1ccc(N(CC)C(=O)CCc2nc(-c3ccccc3F)no2)cc1 | inactive: -9.82% |
| CC(C)c1ccc(NC(=O)c2ccc3c(O)c(S(=O)(=O)c4ccccc4)c(=O)[nH]c3c2)cc1 | inactive: 1.07% |
| Cc1ccc(CNC(=O)c2sc3nc4n(c(=O)c3c2C)CCCCC4)cc1 | inactive: -0.0061% |
| Cc1ccc(N2CCN(C(=O)NCc3noc4ccc(C)cc34)CC2)c(C)c1 | inactive: -5.98% |
| CCOC(=O)N1CCc2c(sc(NCc3cccs3)c2C(=O)Nc2ccc(OC)cc2OC)C1 | inactive: -29.7% |
| O=C(CC1N=C2c3ccccc3N=C(SCc3cccc(Cl)c3)N2C1=O)NCCc1ccccc1 (stereo unspecified) | inactive: -3.02% |
| COc1ccc(CC(=O)N(Cc2nc(-c3ccc(C)cc3)no2)C(C)C)cc1 | inactive: 5.81% |
| COc1ccc(C2CC(=O)N3CN(C4CCCCC4)CSC3=C2C#N)c(OC)c1 (stereo unspecified) | inactive: -11.5% |
| Cc1c(C(=O)NCc2cccc(Cl)c2)sc2nc3n(c(=O)c12)CCCC3 | inactive: -2.09% |
| CCn1c(C)c(C)c2cc(C(=O)N3CCN(c4ccccc4)CC3)ccc21 | inactive: -3.16% |
| CCOc1ccccc1NC(=O)c1c2c(nc3ccccc13)C(=O)N(C1CCCCC1)C2 | inactive: 4.66% |
| COc1ccccc1CC(=O)Nc1ccc2nc(Nc3cccc(C(F)(F)F)c3)cc(C)c2c1 | inactive: -7.35% |
| Cc1ccc(Cl)cc1N1CCN(C(=O)c2cnn(C)c2C2CCN(C(=O)OC(C)(C)C)CC2)CC1 | inactive: -9.92% |
| Cc1cc(C)c(NC(=O)CCCn2c(C)c3cnn(-c4ccccc4)c(=O)c3c2C)c(C)c1 | inactive: -9.84% |
| Cc1ccc(-n2nc3c(N4CCC(C(=O)NC(C)c5ccccc5)CC4)nnc(C)c3c2C)cc1 (stereo unspecified) | inactive: 6.34% |
| Cc1ccc(C(=O)Nc2ccccc2C(=O)O)cc1S(=O)(=O)N1CCCCCC1 | inactive: -0.658% |
| Cc1ccc2c(c1)c(=O)c(C(=O)c1ccc3c(c1)OCO3)cn2Cc1cccc(F)c1 | inactive: 1.92% |
| Cc1cc(Cl)ccc1OCC(=O)N1CCC(c2nc3ccccc3o2)CC1 | inactive: -9.75% |
| Cc1nc(-c2ccc(S(=O)(=O)N(Cc3ccccc3)C(C)C)cc2)co1 | inactive: -1.18% |
| Cn1c(=O)c2sccc2n2c(CCCC(=O)Nc3ccc(Oc4ccc(Cl)cc4)cc3)nnc12 | inactive: -2.42% |
| COc1ccc(Nc2nc3ccccc3nc2NS(=O)(=O)c2ccc(Cl)cc2)cc1OC | inactive: 8.81% |

| SMILES | activity change, negative = inhibition |
| --- | --- |
| Cc1ccccc1OCc1nnc(SCc2cc(=O)c3ccc(C)c(C)c3[nH]2)n1C | inactive: -4.03% |
| COc1ccc(-c2cc(C(F)(F)F)nc(NCCc3ccccc3)n2)cc1 | inactive: 8.87% |
| O=C(/C=C/c1cn(CC(O)CN2CCCCCC2)c2ccccc12)c1ccc(Br)cc1 (stereo unspecified) | inactive: -8.82% |
| COc1cc2cc(CNc3ccccc3)c(=O)n(CC(=O)Nc3cc(C)cc(C)c3)c2cc1OC | inactive: -5.45% |
| CCCCN(CC)CCNC(=O)C1CCN(c2nnc(C)c3c(C)n(-c4ccc(C)cc4)nc23)CC1 | inactive: -1.82% |
| CCN(CCCNC(=O)c1cc2c(=O)[nH]c3ccc(C)cc3c2s1)Cc1ccccc1 | inactive: 2.74% |
| COc1cccc(N2CCN(c3ncc4c(n3)CCN(Cc3ccc(Br)cc3)C4)CC2)c1 | inactive: -2.96% |
| CCCCN(C)CC(O)Cn1cc(/C=C/C(=O)c2ccc(OCC)cc2)c2ccccc21 (stereo unspecified) | inactive: -1.14% |
| CCOC(=O)C1=C(CN(C)Cc2ccccc2)NC(=O)NC1c1ccc(OC(C)C)cc1 (stereo unspecified) | inactive: -9.28% |
| CCc1ccc(C(=O)c2cn(Cc3ccccc3)c3cc(OC)c(OC)cc3c2=O)cc1 | inactive: -0.871% |
| Cc1c(NC(=O)c2ccc(-c3ccc(F)cc3)o2)cccc1-c1nc2ncccc2o1 | inactive: 0.635% |
| Cc1ccc(S(=O)(=O)Nc2nc3n(n2)C(c2ccc(Cl)cc2)C=C(c2ccccc2)N3)cc1 (stereo unspecified) | inactive: -1.07% |
| Cc1ccc(CCNC(=O)c2ccc(CSc3nc4ccncc4n3Cc3ccc(F)cc3)cc2)cc1 | inactive: -1.17% |
| Cc1ccc(Cl)cc1N1CCN(C(=O)c2cc(S(=O)(=O)N3CCCCC3)cn2C)CC1 | inactive: 0.844% |
| Cc1ccc2ccc3cc(C(=O)Nc4ccc(C)c(F)c4)nc3c2[nH]1 | inactive: 3.18% |
| CCc1ccc(CN(Cc2ccco2)C(=O)c2ccc(C)cc2)cc1 | inactive: -7.11% |
| Cn1c(=O)c2c(-c3ccccc3Br)n(Cc3ccccc3)cc2n(C)c1=O | inactive: -1.16% |
| O=C(NCCCN1CCCCC1)c1ccc2c(c1)sc1nc(-c3ccc(F)cc3)cn12 | inactive: 2.98% |
| Cc1ccccc1NC(=O)c1c(NC(=O)C(F)(F)F)sc2c1CCCCC2 | inactive: 6.21% |
| CCCN(C(=O)c1sc2nc3n(c(=O)c2c1C)CCCC3)c1ccccc1C | inactive: -5.5% |
| CCOC(=O)c1c(C)oc2nc(C)nc(N3CCN(c4cccc(C(F)(F)F)c4)CC3)c12 | inactive: -3.41% |

4 records picked at random from those above, as already listed:

| SMILES | activity change, negative = inhibition |
| --- | --- |
| CCCCN(C)CC(O)Cn1cc(/C=C/C(=O)c2ccc(OCC)cc2)c2ccccc21 (stereo unspecified) | inactive: -1.14% |
| O=C(/C=C/c1cn(CC(O)CN2CCCCCC2)c2ccccc12)c1ccc(Br)cc1 (stereo unspecified) | inactive: -8.82% |
| CCN(CCCNC(=O)c1cc2c(=O)[nH]c3ccc(C)cc3c2s1)Cc1ccccc1 | inactive: 2.74% |
| COc1cc2cc(CNc3ccccc3)c(=O)n(CC(=O)Nc3cc(C)cc(C)c3)c2cc1OC | inactive: -5.45% |

Carrying on:

| SMILES | activity change, negative = inhibition |
| --- | --- |
| Cc1ccc(C2C=C(c3ccccc3)Nc3nc(NS(=O)(=O)c4ccc(C)cc4)nn32)cc1 (stereo unspecified) | inactive: 0.761% |
| CCCn1c2ccccc2c2cnn(CC(=O)N(CC)c3cc(C)ccc3C)c(=O)c21 | inactive: -8.52% |
| CCCCCOc1ccccc1CN1C(=O)C(=O)c2cc(C)ccc21 | inactive: 1.68% |
| Cc1ccc(NC(=O)c2ccc3c(O)c(S(=O)(=O)c4ccc(Cl)cc4)c(=O)[nH]c3c2)cc1 | inactive: -1.63% |
| Cc1cccc(C)c1OCC(=O)N(Cc1ccco1)Cc1ccco1 | inactive: 4.88% |
| O=C(CSc1nc2c([nH]c3ccccc32)c(=O)n1-c1ccccc1F)Nc1cccc(C(F)(F)F)c1 | inactive: -13% |
| CCc1ccccc1-n1cnc2cc(C(=O)NC3CCCCCC3)ccc21 | inactive: 2.16% |
| O=C(c1ccc(F)cc1)c1cn(Cc2ccccc2)c2cc3c(cc2c1=O)OCO3 | inactive: 4.58% |
| COc1cccc(C(=O)Nc2nc3nc(-c4ccccc4)cc(=O)n3[nH]2)c1 | inactive: -3.1% |
| CCn1cc(C(=O)NCCc2ccc(OC)c(OC)c2)c(=O)c2cc(S(=O)(=O)N(C)C3CCCCC3)ccc21 | inactive: -16% |
| CCn1nc(C)c2c(-c3ccccc3)cc(=O)n(C(C)C(=O)NCc3ccccc3OC)c21 (stereo unspecified) | inactive: -9.24% |
| Cc1cc(-c2ccccc2)n2nc(-c3ccccc3)cc2n1 | inactive: -0.21% |
| Cc1ccc(NC(=O)N2CCN(c3cc(-c4noc(C)n4)ccc3C)CC2)c(F)c1 | inactive: -1.16% |
| CCOc1cc(CNc2ccc(O)cc2)cc(Cl)c1OCc1ccccc1 | inactive: -10.7% |
| COc1ccccc1OCCSc1nc(-c2ccc(C(C)(C)C)cc2)nc2cc(=O)[nH]n12 | inactive: 8.97% |
| COc1ccc(CNC(=O)c2cnn3c(C)c(Cc4c(F)cccc4Cl)c(C)nc23)cc1 | inactive: -1.61% |
| Cc1ccc(C)c(N(C)C(=O)C2CCN(c3ncnc4c3nc3n4CCCCC3)CC2)c1 | inactive: 2.18% |
| Cc1cc(C)n2c(Nc3ccc4c(c3)OCCO4)c(-c3ccccc3)nc2n1 | inactive: -0.88% |
| Cc1cccc(CN2C(=O)c3ccccc3Sc3ccc(C(=O)N4CCCC4)cc32)c1 | inactive: -12% |
| CCCCN(CC)CCNC(=O)c1cc2c(-c3ccc(Cl)cc3)nn(C)c2s1 | inactive: -5.16% |
| COc1ccc(OCCCn2c(=O)oc3ccc(C)cc32)cc1 | inactive: -5.37% |

| SMILES | activity change, negative = inhibition |
| --- | --- |
| CCC(=O)N1CCc2cc(Br)cc(S(=O)(=O)CCC(=O)N(C)c3cccc(C)c3)c21 | inactive: 1.23% |
| O=C1CC(c2nc3ccccc3n2CCC2CCCCC2)CN1c1ccccc1Cl (stereo unspecified) | inactive: -1.15% |
| CC(=O)O[C@H]1C[C@@H]2CC[C@@H]3[C@H](CC[C@@]4(C)[C@H]3C[C@H]([N+]3(C)CCCCC3)[C@@H]4OC(C)=O)[C@@]2(C)C[C@@H]1[N+]1(C)CCCCC1 | inactive: 4.17% |
| CC(=O)N1CCc2c(sc3c2c(=O)n(Cc2ccccc2)c(=O)n3Cc2cccc(Cl)c2)C1 | inactive: -4.28% |
| CCN(CC)C(=O)C1CCCN(c2ncnc3c2c(-c2ccccc2)cn3-c2cccc(C)c2)C1 (stereo unspecified) | inactive: -4.77% |
| CCC(C)NC(=O)c1cn(CC)c2ccc(S(=O)(=O)N3CCc4ccccc4C3)cc2c1=O (stereo unspecified) | inactive: -9.33% |
| Cc1ccc(CNC(=O)CSCc2nc(-c3cccc(C)c3)oc2C)cc1 | inactive: -5.25% |
| Cc1cccc(NC(=O)COc2ccc3oc4c(c3c2)CCCC4)c1 | inactive: -8.46% |
| COc1ccccc1N1CCN(C(=O)c2cc3c(-c4ccccc4F)nn(C)c3s2)CC1 | inactive: -3.23% |
| CCOc1cccc(C(=O)N(Cc2ccc(F)cc2)Cc2ccco2)c1 | inactive: -7.98% |
| COc1cccc(-c2nc(CS(=O)CC(=O)N3CCN(c4cccc(C(F)(F)F)c4)CC3)c(C)o2)c1 (stereo unspecified) | inactive: -5.34% |
| CCc1ccc(CNC(=O)CSCc2cnn(-c3ccccc3)c2-n2cccc2)cc1 | inactive: -10.6% |
| Cc1ccccc1Cc1c(C)nc2nc(SCC(=O)NC(C)c3ccccc3)nn2c1C (stereo unspecified) | inactive: -3.9% |
| O=S(=O)(Nc1nc2n(n1)C(c1ccccc1)C=C(c1ccc(Cl)cc1)N2)c1ccccc1 (stereo unspecified) | inactive: 9.34% |
| CCc1ccc(/C=C2/SC(=S)NC2=O)cc1 | inactive: -6.97% |
| CC(Sc1nc(-c2ccccc2)c(C#N)c(=O)[nH]1)C(=O)Nc1ccc(F)cc1 (stereo unspecified) | inactive: 4.99% |
| Cc1ccc(CSc2nc(=O)c3c(C)cc(C)nc3n2C2CC2)cc1 | inactive: -2.33% |
| COc1ccc(C(=O)c2cn(Cc3ccccc3F)c3ccc(F)cc3c2=O)cc1 | inactive: -4.88% |
